Test results reported in doi:10.1101/2025.01.15.633117.
No constants are given. Whether binding was seen depends on the method and setting. Binding seen in cells or lysates may run through a third protein. These calls come from enrichment with a bait or labelling near it, and not all partners need be listed. For some assays here: Sequences can lack the tags named with a protein. Each block holds one molecule with its values, some of them ahead of it.

By UniProt entry, the sequences of proteins in these tests, tags left out. Residues count along the entry.
UniProt Q01973, residues 30-937: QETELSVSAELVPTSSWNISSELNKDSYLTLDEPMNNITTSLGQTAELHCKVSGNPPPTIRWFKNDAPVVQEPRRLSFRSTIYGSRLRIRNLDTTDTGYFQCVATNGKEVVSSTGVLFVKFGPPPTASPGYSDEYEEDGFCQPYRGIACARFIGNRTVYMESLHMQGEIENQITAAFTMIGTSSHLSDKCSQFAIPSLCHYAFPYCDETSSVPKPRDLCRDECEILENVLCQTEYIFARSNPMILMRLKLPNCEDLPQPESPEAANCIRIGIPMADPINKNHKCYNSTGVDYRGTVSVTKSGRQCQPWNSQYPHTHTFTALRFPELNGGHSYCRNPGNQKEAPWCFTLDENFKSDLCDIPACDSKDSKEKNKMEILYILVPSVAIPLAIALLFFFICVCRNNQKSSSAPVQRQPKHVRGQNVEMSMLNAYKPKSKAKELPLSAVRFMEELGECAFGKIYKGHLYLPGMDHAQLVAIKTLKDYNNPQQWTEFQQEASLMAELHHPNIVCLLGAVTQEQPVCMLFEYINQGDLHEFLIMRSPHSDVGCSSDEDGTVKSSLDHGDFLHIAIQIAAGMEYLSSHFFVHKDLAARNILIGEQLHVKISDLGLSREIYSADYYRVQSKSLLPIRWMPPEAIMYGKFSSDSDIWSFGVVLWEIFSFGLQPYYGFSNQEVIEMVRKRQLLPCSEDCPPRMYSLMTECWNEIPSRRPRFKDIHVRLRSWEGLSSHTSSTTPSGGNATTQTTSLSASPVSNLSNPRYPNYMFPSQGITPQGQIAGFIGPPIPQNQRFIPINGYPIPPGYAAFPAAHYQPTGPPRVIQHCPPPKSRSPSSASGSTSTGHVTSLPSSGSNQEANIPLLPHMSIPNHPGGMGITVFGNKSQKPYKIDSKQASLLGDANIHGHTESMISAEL
UniProt Q01974, residues 34-943: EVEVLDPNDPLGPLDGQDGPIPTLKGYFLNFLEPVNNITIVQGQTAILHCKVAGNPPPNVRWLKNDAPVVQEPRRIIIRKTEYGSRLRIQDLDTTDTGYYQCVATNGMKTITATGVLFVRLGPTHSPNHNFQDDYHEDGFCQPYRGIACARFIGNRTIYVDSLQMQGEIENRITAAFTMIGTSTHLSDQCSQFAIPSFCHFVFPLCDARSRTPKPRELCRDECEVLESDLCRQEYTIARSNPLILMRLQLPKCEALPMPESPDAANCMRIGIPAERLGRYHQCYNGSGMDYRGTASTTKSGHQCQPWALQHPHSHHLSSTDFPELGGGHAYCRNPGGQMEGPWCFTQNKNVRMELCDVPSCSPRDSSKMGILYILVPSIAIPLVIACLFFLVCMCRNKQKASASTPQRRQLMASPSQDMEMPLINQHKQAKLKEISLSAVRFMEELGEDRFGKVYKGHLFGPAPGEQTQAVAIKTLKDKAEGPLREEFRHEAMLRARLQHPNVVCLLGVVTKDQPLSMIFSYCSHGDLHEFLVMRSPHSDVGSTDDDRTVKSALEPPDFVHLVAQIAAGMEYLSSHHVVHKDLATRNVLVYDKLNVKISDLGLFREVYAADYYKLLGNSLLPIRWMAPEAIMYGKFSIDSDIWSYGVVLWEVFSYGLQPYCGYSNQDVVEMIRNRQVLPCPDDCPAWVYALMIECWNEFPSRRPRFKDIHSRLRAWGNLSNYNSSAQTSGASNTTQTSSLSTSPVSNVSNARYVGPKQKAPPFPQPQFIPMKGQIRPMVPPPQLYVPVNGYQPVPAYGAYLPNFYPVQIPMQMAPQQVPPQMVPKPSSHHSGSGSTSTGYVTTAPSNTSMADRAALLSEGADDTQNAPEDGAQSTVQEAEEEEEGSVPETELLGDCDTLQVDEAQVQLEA
UniProt P29317, residues 24-976: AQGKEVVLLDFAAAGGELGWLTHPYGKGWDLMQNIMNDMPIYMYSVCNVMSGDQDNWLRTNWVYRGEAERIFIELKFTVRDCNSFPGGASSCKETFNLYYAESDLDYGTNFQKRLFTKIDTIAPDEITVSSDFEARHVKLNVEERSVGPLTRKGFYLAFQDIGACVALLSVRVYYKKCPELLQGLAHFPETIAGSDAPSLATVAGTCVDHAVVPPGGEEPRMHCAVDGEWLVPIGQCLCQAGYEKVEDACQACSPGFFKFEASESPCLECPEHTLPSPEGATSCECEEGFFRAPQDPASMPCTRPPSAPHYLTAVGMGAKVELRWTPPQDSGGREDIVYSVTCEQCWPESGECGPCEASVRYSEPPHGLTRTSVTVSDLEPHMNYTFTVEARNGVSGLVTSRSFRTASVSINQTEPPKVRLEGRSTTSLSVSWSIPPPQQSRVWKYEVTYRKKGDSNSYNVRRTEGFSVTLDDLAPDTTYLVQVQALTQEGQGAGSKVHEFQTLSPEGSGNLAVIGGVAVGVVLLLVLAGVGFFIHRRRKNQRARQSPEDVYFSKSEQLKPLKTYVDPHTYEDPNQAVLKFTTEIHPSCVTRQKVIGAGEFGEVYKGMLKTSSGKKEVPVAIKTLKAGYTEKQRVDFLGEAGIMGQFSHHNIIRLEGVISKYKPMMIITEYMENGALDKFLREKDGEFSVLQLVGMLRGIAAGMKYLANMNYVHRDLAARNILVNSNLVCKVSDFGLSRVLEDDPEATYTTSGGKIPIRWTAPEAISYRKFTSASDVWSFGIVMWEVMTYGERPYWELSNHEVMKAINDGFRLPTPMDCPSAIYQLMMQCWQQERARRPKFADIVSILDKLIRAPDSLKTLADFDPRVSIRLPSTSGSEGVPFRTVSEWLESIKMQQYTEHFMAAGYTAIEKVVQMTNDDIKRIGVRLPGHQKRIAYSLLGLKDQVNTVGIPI
UniProt O14641: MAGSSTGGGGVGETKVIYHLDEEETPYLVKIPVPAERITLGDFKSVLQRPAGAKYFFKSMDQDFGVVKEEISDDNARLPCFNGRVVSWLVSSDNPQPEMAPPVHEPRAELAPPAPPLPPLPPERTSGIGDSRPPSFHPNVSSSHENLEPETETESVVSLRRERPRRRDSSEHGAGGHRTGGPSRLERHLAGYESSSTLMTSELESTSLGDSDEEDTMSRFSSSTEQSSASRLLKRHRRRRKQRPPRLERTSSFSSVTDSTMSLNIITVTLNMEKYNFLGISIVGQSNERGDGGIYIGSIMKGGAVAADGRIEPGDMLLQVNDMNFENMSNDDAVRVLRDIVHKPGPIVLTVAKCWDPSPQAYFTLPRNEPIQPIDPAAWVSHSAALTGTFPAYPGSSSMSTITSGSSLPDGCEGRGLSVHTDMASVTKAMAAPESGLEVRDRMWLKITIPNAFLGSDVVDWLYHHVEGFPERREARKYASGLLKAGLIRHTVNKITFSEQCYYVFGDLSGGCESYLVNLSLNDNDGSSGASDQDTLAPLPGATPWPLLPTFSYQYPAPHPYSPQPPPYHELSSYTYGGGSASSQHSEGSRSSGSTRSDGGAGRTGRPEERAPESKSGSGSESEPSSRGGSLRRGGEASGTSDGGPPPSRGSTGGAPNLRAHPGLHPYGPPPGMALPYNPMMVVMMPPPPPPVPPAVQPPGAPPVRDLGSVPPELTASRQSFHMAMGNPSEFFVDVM

Key:
Assay in all cases: proximity labelling
MYC-BirA*-DVL3 (human) = target: T1, MYC-BirA*-DVL3 (human) (UniProt Q92997)
T1 sequence: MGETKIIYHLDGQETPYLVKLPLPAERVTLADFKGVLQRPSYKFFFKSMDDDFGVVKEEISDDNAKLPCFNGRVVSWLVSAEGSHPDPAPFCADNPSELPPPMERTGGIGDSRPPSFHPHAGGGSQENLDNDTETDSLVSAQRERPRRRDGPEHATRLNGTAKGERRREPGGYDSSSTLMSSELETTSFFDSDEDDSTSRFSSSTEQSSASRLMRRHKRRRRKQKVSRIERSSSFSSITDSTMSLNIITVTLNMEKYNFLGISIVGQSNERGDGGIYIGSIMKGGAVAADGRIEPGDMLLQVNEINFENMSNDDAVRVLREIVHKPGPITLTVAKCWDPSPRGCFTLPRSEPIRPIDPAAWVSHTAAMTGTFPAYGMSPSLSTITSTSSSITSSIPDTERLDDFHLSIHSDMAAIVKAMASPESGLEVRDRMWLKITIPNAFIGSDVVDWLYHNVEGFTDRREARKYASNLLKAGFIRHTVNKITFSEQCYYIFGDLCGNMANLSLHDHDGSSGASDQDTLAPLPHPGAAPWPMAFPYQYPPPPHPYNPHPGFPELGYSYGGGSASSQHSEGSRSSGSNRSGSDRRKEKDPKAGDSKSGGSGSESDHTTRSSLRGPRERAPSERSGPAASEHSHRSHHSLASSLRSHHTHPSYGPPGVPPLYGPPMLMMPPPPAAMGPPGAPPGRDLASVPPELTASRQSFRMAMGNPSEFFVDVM

[1] = target: T2, MYC-BirA*-PRICKLE1 (human) (UniProt Q96MT3)
T2 sequence: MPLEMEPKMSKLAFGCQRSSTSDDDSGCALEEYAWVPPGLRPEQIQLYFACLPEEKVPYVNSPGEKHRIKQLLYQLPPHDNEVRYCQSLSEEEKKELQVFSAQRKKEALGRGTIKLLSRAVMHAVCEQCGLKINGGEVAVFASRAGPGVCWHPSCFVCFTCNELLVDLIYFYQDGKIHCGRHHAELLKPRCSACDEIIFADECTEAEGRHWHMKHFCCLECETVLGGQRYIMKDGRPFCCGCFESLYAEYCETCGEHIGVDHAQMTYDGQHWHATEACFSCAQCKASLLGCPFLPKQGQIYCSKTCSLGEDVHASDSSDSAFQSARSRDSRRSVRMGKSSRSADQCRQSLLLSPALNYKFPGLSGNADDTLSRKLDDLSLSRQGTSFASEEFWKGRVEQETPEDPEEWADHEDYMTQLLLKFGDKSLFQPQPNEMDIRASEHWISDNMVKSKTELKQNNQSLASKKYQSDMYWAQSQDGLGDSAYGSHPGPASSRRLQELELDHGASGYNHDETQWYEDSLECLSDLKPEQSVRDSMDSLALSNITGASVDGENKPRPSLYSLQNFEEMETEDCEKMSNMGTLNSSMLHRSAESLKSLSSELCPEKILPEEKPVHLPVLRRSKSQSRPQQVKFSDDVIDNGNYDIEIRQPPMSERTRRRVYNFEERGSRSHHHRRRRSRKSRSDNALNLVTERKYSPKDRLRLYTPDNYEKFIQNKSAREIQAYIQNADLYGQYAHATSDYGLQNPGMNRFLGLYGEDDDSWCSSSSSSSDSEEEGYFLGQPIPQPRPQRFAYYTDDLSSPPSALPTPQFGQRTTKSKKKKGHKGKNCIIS

ROR1-BirA*-HA (human) = ROR1-BirA*-HA (human) (UniProt Q01973)
ROR2-BirA*-HA (human) = ROR2-BirA*-HA (human) (UniProt Q01974)
VANGL2-BirA*-HA (human) = target: T3, VANGL2-BirA*-HA (human) (UniProt Q9ULK5)
T3 sequence: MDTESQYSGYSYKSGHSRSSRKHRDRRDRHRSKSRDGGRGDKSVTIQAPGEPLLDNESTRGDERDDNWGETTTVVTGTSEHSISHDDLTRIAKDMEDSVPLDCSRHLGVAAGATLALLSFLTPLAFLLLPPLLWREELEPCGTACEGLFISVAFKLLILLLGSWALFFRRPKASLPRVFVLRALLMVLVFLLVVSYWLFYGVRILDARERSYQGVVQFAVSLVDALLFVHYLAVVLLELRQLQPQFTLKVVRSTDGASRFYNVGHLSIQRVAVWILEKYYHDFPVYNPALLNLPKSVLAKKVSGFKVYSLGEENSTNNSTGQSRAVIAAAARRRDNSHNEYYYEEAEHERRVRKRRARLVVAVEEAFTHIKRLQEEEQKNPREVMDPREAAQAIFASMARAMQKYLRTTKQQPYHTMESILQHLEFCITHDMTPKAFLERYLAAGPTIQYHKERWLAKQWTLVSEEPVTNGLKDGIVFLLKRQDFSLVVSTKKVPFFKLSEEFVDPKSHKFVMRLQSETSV

[2] = target: T4, PHACTR4-V5-miniTurboID (human) (UniProt Q8IZ21)
T4 sequence: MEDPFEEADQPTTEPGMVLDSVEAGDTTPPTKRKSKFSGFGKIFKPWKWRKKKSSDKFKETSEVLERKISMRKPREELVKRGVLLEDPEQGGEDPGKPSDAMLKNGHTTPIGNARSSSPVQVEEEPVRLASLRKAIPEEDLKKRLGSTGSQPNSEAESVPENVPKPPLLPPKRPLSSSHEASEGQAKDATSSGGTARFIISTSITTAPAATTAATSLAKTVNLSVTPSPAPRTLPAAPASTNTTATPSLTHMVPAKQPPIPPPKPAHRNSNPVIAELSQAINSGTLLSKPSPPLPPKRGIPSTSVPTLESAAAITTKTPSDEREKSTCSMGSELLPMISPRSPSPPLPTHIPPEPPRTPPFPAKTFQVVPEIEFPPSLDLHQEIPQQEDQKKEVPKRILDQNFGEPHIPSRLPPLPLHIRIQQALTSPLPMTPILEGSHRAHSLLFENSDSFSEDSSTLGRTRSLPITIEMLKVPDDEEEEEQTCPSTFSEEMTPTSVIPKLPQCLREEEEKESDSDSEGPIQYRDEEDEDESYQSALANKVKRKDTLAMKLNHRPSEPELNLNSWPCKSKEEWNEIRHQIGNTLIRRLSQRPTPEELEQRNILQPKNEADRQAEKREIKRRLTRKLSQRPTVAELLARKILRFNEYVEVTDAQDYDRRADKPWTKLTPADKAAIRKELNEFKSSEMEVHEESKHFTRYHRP

[3] = target: EPHA2-V5-miniTurboID (human) (UniProt P29317)
[4] = target: T5, RAI14-V5-miniTurboID (human) (UniProt Q9P0K7)
T5 sequence: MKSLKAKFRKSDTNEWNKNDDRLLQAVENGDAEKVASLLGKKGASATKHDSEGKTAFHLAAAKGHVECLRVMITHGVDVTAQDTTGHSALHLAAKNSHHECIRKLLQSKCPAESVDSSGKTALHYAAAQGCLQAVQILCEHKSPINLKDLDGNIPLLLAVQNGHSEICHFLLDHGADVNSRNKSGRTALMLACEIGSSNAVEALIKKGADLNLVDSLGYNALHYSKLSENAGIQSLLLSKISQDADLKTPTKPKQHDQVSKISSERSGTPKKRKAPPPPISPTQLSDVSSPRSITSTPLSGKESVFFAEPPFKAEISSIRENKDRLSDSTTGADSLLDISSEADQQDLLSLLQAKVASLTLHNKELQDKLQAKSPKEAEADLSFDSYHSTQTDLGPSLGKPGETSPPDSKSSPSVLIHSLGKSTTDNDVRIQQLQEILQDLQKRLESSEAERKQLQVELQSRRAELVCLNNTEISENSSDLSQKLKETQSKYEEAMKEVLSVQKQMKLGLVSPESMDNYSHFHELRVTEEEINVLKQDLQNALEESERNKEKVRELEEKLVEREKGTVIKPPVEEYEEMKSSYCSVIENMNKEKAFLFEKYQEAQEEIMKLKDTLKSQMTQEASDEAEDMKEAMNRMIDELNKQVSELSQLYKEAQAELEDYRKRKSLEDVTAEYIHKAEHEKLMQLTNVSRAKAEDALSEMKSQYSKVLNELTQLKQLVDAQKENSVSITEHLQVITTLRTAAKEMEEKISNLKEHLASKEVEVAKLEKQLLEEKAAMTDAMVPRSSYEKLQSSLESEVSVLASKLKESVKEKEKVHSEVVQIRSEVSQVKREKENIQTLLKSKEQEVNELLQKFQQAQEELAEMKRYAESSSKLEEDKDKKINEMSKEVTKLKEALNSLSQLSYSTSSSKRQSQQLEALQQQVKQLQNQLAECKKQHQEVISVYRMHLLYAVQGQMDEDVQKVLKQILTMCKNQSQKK

- binding (MYC-BirA*-DVL3 (human)): binds
- binding [1]: binds
- binding (ROR1-BirA*-HA (human)): binds
- binding (ROR2-BirA*-HA (human)): binds
- binding (VANGL2-BirA*-HA (human)): binds
Molecule: DVL2 (from UniProt O14641 1-736)

- binding [2]: binds
B1: VANGL1 (protein, UniProt Q8TAA9 1-524)
chain: MDTESTYSGYSYYSSHSKKSHRQGERTRERHKSPRNKDGRGSEKSVTIQPPTGEPLLGNDSTRTEEVQDDNWGETTTAITGTSEHSISQEDIARISKDMEDSVGLDCKRYLGLTVASFLGLLVFLTPIAFILLPPILWRDELEPCGTICEGLFISMAFKLLILLIGTWALFFRKRRADMPRVFVFRALLLVLIFLFVVSYWLFYGVRILDSRDRNYQGIVQYAVSLVDALLFIHYLAIVLLELRQLQPMFTLQVVRSTDGESRFYSLGHLSIQRAALVVLENYYKDFTIYNPNLLTASKFRAAKHMAGLKVYNVDGPSNNATGQSRAMIAAAARRRDSSHNELYYEEAEHERRVKKRKARLVVAVEEAFIHIQRLQAEEQQKAPGEVMDPREAAQAIFPSMARALQKYLRITRQQNYHSMESILQHLAFCITNGMTPKAFLERYLSAGPTLQYDKDRWLSTQWRLVSDEAVTNGLRDGIVFVLKCLDFSLVVNVKKIPFIILSEEFIDPKSHKFVLRLQSETSV

- binding [3]: binds
- binding [4]: binds
B2: PRICKLE1 (endogenous) (protein, UniProt Q96MT3 1-831)
chain: T2 sequence
